Earlier results in patent US11346820B2, “HPLC-PDA method and uses thereof in phytoestrogen measurement” (The Board Of Regents, The University of Texas System, priority 2019, dated 2022).

Details: spiked at 1, 10 and 100 μmol/l, n=5, urine and serum
In the case of `Oc1ccc([C@H]2COc3cc(O)ccc3C2)cc1` (racemic) [Equol], the recoveries after spiking is listed as 100%.
In the case of `O=c1c(-c2ccc(O)cc2)coc2cc(O)cc(O)c12` [Genistein], the recoveries after spiking is listed as 100%.
For `O=c1c(-c2ccc(O)cc2)coc2cc(O)ccc12` [Daidzein], the recoveries after spiking is listed as 100%.
